According to the supplement of paper PMC12542422:
Counter-ions that a name gives are not always drawn. ± gives the standard deviation of the averaged measurements. Some of the results follow. Values are raw readings; no control value is given beside them.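 HeLa cells imaged for ribosome-assembly readouts (ENP1 staining with or without export block, or inducible tagged ribosomal protein reporters); machine learning classified each cell's signal location against solvent (DMSO) controls. Hits exceeded the DMSO false-positive mean by five standard deviations, then were visually confirmed; three biological replicates.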

tested on: HeLa RPL29-GFP reporter; experiment: fraction of reporter-positive cells with nuclear (nucleolar or nucleolar/nucleoplasmic) RPL29-GFP (MainHitrate); higher = more cells with nucleolar/nuclear readout signal (for ENP1 -LMB: less RNAPI inhibition; for +LMB ENP1 and RP reporters: stronger nuclear/nucleolar retention, i.e. ribosome biogenesis defect); conditions: concentration: 1 µM; treatment time: 6 h

Structure (SMILES)	fraction of reporter-positive cells with nuclear
O=C(NC(Cc1cc(=O)[nH]c2ccccc12)C(=O)O)c1ccc(Cl)cc1 (centres undefined) [Rebamipide]	0.225 ± 0.079
O=C(Nc1ccccc1)c1ccccc1O [Salicylanilide]	0.221 ± 0.065
OC(CCN1CCCC1)(c1ccccc1)C1CCCCC1 (centres undefined) [Procyclidine HCl]	0.268 ± 0.24
Cc1cccc(C)c1OCC(=O)N[C@@H](Cc1ccccc1)[C@@H](O)C[C@H](Cc1ccccc1)NC(=O)[C@H](C(C)C)N1CCCNC1=O [Lopinavir (ABT-378)]	0.206 ± 0.063
